The results in this text go back to the supplement of paper PMC10849652.

The chains behind the UniProt entries cited, without tags or fusion partners. Where a name states a change or a piece, a line headed by the entry shows the natural chain unless it says otherwise.
UniProt Q9H2J4: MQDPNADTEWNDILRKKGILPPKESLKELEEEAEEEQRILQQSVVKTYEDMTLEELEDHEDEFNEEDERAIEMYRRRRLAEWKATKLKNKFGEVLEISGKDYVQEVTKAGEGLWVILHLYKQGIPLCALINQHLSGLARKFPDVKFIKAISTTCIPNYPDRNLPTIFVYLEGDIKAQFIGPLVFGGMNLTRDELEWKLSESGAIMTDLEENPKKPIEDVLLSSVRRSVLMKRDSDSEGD
UniProt H7BZJ3: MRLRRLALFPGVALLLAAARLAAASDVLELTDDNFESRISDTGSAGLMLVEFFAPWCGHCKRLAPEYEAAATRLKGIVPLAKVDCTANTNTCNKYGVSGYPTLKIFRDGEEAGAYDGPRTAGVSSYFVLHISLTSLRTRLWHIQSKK
UniProt O95453: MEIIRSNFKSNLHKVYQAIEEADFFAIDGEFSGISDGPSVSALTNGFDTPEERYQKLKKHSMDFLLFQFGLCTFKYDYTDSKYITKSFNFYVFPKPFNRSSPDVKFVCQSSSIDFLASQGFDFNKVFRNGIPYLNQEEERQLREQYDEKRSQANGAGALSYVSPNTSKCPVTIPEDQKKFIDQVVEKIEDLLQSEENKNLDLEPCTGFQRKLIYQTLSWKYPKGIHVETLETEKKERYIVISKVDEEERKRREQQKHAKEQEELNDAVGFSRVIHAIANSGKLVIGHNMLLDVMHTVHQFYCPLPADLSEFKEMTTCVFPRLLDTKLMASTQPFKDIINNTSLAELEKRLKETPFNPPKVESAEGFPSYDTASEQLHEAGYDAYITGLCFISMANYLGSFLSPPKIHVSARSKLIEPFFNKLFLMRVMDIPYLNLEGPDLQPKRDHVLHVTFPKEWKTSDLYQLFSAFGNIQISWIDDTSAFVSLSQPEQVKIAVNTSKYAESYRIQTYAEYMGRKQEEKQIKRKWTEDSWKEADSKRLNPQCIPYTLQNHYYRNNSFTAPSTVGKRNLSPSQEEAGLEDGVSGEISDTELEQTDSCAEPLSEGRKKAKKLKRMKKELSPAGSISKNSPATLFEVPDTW
UniProt P08237: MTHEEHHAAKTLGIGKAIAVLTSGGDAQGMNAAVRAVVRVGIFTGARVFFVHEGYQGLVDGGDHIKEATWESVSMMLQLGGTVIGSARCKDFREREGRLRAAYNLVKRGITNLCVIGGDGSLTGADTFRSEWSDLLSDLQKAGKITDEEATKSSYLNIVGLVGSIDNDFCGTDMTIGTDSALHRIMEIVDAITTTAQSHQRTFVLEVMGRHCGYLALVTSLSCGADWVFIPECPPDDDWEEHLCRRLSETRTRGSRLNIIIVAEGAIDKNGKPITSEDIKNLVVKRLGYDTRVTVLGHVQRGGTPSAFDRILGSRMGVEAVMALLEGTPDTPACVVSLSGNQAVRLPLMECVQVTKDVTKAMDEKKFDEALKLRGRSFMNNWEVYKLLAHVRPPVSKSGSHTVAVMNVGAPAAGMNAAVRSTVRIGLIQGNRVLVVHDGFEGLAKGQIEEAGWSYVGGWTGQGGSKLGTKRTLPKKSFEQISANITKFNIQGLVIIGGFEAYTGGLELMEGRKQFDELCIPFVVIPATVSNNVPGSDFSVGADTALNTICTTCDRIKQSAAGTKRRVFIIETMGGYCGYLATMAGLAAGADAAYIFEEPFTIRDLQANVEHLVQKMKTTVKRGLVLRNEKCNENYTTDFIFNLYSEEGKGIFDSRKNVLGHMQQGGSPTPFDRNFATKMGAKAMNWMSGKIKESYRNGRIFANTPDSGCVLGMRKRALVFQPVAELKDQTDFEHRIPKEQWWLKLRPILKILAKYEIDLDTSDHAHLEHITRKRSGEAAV
UniProt Q9UKL6: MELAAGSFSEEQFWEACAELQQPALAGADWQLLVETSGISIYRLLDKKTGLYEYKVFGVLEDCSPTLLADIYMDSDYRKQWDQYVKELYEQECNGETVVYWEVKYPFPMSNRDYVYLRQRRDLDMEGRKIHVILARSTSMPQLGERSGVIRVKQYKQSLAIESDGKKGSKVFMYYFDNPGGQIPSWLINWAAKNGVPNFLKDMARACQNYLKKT
UniProt P57721, whole entry, looked up: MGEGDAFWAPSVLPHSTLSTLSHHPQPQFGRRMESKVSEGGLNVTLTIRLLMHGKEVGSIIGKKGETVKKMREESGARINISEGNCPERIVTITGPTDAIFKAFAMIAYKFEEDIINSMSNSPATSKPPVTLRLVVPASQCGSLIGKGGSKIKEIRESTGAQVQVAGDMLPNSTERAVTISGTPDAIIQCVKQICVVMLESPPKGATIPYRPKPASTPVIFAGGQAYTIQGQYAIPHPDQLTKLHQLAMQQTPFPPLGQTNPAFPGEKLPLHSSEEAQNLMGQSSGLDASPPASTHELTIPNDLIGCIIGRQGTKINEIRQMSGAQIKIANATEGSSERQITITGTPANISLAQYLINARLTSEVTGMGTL
UniProt Q9NQP4, whole entry, looked up: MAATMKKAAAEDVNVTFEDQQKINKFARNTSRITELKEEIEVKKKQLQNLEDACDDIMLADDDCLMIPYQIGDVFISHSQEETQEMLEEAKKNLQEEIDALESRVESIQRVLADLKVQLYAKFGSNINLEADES
UniProt P13667: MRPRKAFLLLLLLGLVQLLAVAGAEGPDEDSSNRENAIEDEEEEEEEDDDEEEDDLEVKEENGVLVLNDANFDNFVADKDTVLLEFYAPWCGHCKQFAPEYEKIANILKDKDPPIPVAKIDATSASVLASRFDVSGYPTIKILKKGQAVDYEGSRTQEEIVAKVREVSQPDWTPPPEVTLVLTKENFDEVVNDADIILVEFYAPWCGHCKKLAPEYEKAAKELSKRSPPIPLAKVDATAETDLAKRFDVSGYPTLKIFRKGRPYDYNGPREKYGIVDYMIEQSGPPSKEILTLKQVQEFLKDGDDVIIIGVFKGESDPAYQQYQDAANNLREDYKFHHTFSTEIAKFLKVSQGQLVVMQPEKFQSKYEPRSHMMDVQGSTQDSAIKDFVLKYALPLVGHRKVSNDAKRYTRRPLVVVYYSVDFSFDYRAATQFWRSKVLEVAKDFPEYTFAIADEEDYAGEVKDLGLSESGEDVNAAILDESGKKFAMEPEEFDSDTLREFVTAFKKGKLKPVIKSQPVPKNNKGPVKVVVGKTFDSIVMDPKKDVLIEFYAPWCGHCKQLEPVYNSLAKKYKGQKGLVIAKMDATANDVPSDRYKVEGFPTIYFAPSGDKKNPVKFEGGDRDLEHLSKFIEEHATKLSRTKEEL
UniProt Q99447: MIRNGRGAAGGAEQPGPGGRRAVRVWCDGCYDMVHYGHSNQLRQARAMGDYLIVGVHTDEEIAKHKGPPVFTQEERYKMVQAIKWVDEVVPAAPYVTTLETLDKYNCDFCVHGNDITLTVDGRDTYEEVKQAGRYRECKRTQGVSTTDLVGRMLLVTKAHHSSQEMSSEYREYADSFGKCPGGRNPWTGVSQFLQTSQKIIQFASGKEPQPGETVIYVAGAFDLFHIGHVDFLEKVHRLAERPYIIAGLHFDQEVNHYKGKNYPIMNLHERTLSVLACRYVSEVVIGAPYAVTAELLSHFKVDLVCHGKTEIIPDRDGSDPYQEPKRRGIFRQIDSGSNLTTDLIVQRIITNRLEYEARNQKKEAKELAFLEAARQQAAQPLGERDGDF
UniProt O00408, whole entry, looked up: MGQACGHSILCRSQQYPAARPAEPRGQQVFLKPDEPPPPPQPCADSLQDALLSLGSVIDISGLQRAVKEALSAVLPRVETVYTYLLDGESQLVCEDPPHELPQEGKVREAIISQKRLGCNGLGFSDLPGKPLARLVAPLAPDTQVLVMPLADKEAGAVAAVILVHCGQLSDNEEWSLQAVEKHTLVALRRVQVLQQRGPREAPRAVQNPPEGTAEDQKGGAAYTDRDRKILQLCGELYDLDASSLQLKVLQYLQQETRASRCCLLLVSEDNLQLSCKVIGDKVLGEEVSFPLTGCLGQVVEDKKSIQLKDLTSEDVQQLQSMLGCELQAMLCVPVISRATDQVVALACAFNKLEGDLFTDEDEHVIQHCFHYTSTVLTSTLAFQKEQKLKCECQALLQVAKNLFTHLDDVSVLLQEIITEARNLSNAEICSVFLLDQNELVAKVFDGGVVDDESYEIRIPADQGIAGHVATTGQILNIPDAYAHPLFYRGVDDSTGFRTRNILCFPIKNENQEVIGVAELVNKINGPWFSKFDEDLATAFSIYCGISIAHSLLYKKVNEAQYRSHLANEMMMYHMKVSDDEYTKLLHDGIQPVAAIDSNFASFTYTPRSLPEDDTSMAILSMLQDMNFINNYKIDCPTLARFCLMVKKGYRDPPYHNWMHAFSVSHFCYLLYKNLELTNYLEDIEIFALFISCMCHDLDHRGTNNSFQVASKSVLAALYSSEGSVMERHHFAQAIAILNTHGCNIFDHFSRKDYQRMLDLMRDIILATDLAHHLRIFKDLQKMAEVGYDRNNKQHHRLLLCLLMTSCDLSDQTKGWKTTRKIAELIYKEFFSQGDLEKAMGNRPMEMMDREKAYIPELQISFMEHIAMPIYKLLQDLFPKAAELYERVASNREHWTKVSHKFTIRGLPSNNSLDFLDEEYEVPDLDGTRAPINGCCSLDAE
UniProt Q15366, whole entry, looked up: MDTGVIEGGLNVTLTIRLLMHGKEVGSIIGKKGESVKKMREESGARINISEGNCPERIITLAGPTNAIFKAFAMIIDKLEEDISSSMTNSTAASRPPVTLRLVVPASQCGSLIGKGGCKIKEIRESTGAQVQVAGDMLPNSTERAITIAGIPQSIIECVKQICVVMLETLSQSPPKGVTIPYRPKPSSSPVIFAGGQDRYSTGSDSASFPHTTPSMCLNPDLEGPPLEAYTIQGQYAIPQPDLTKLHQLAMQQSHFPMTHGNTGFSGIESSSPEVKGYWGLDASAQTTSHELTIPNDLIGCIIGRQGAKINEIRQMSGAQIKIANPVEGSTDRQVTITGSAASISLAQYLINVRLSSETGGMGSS
UniProt O15212, whole entry, looked up: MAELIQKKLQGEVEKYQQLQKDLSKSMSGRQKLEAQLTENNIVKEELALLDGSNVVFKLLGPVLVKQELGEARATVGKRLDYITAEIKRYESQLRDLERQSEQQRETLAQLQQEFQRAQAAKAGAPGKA
UniProt Q9UHV9, whole entry, looked up: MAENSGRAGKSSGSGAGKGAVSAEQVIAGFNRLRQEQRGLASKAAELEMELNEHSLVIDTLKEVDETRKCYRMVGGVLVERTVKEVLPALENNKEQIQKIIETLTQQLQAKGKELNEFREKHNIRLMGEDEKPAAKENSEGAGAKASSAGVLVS
UniProt Q9BUL8: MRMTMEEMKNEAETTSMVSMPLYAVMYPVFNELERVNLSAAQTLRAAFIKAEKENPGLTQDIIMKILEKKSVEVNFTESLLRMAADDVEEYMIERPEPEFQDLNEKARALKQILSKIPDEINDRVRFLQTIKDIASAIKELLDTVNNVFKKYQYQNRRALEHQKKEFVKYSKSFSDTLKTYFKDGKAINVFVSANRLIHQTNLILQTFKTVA
UniProt Q6ZW49, whole entry, looked up: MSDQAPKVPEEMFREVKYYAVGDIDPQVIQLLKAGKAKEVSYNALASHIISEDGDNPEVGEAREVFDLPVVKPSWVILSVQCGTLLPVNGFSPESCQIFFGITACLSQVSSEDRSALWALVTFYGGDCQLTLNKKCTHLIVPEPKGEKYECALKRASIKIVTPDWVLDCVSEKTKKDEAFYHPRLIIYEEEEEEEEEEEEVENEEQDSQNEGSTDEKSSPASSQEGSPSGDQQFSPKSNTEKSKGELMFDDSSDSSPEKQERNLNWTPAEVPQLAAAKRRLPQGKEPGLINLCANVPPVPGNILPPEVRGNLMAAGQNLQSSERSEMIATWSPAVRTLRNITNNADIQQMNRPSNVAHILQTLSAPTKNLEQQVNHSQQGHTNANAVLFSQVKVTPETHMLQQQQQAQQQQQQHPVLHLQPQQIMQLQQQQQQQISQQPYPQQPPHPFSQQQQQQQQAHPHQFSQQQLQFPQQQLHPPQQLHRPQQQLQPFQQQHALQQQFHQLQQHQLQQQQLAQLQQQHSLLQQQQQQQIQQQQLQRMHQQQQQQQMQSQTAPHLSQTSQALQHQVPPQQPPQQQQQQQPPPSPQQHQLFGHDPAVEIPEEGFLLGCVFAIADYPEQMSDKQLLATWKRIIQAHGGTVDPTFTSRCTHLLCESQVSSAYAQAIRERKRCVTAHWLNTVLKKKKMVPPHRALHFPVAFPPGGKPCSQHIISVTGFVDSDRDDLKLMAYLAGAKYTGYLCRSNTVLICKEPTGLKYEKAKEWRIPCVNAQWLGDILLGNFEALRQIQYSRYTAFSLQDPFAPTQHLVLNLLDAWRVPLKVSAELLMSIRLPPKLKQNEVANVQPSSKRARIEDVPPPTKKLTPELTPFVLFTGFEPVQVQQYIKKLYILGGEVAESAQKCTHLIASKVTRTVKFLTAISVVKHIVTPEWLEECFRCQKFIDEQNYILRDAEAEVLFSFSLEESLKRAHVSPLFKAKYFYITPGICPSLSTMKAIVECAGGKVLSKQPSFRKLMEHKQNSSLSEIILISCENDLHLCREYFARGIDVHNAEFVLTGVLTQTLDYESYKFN
UniProt Q9NUG6, whole entry, looked up: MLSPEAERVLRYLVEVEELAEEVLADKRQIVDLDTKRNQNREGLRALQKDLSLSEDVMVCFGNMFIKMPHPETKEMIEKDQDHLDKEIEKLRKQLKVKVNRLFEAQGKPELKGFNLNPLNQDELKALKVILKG

The list shows a part of the results.

Compound in this experiment: CS(=O)(=O)N1CCN(Cc2cc3nc(-c4cccc5[nH]ncc45)nc(N4CCOCC4)c3s2)CC1 [pictilisib]
Kind of experiment: log2 fold change, soluble protein after heating vs DMSO (PISA); higher = thermal stabilisation; K562 lysate, 10 uM; active = over 0.2 and 3.5 SD of the protein, either way, in both replicates (recomputed). The essentials: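 Following dounce homogenisation of K562 pellets in PBS pH 7.4 with 1 mM MgCl2, crude extract at 1 mg/mL protein was incubated for 30 min with 10 μM compound. Aliquots were then heated for 3 min over 48°C-58°C and pooled, NP-40 was added to 0.5% at 4°C, and soluble protein was recovered as the supernatant at 21,000xg for 90 min. Channel-sum-equalised TMTpro 16plex LC-MS/MS quantified this protein. Each value, from duplicates, is a log-two fold change in thermal stability relative to solvent controls.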
Take PDCL3 (UniProt Q9H2J4): the log2 fold change was inactive: -0.02.
The result for PATL1 (UniProt Q86TB9) reads inactive: 0.051; that for PDIA3 (UniProt H7BZJ3), inactive: 0.108.
The result for PARN (UniProt O95453) reads inactive: -0.021.
In the case of PEX5 isoform 4 (UniProt P50542) it was inactive: -0.064; in that of PFKM isoform 3 (UniProt P08237), inactive: -0.032; in that of PCTP (UniProt Q9UKL6), inactive: 0.021.
With PCBP3 (UniProt P57721), the log2 fold change was inactive: -0.035.
Take PDCD6IP (UniProt Q8WUM4): the log2 fold change is inactive: -0.032.
Regarding PDCL (UniProt Q13371), the log2 fold change is inactive: 0.016.
In the case of PFDN4 (UniProt Q9NQP4) it was inactive: -0.036.
In the case of PCBP2 (UniProt H3BRU6) it was inactive: -0.021.
In the case of PDCD6IP isoform 2 (UniProt Q8WUM4) it was inactive: -0.015.
Regarding PDIA4 (UniProt P13667), the log2 fold change is inactive: 0.006.
The result for PDE12 (UniProt Q6L8Q7) reads inactive: 0.021; that for PCYT2 isoform 3 (UniProt Q99447), inactive: -0.011.
In the case of PDE2A (UniProt O00408) it was inactive: 0.
The result for PCBP2 isoform 8 (UniProt Q15366) reads inactive: -0.013; that for PFDN6 (UniProt O15212), inactive: -0.109.
With PFDN2 (UniProt Q9UHV9), the log2 fold change was inactive: -0.017.
On to PDCD10 (UniProt Q9BUL8), for which the log2 fold change was inactive: -0.014.
PAXIP1 (UniProt Q6ZW49): the log2 fold change was inactive: -0.008.
In the case of PDRG1 (UniProt Q9NUG6) it was inactive: -0.033.
